The values that follow come from paper PMC5110245, “Identification and reconstitution of the rubber biosynthetic machinery on rubber particles from Hevea brasiliensis” (eLife, 2016).

These are yes or no findings as the source states them, for the method shown. For some of these results: Binding seen in cells or lysates may run through a third protein. Some binding calls cover weakened binding; strength is not graded here. Where a sequence is shown, tags or fusion partners need not be part of it.

For test [1], the target named is HRT2 (cis-prenyltransferase from Hevea brasiliensis), split-ubiquitin Y2H fusion (Hevea brasiliensis) (UniProt Q8W3U4). Nature of the test: two-hybrid; split-ubiquitin-based Y2H (DUALmembrane Kit 3), pairwise; S. cerevisiae NMY51; bait in pBT3-SUC (Cub-LexA-VP16), prey in pPR3-N (NubG); growth of dilution series on SD(-WL), SD(-WLH), SD(-WLHAde) and SD(-WLHAde) with 1 mM 3-AT, 30°C.

Test [2] deals with T1, Small rubber particle protein (SRPP) from Hevea brasiliensis, split-ubiquitin Y2H fusion (Hevea brasiliensis) (UniProt O82803).
T1 sequence: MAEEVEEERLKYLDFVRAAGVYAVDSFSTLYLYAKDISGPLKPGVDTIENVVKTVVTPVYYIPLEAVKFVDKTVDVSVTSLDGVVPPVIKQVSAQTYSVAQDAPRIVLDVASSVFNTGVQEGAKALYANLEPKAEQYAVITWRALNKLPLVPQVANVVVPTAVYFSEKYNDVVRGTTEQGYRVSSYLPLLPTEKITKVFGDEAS
The test is described as above.

The target in test [3] is Rubber elongation factor (REF) from Hevea brasiliensis, split-ubiquitin Y2H fusion (Hevea brasiliensis) (UniProt P15252). The test is described as above.
Test [4] addresses Rubber elongation factor (REF) fused to a split mVenus fragment (BiFC) (Hevea brasiliensis) (UniProt P15252). Nature of the test: split reporter; BiFC with split mVenus fragments (pDOE-05 or pDOE-07) in agroinfiltrated N. benthamiana leaf epidermal cells, confocal microscopy 2 days after infiltration; also with REF:mCherry co-expressed (Figure 4B).

B1: HRT2 (cis-prenyltransferase from Hevea brasiliensis), split-ubiquitin Y2H fusion (enzyme, UniProt Q8W3U4 1-284)
chain: MELYNGERPSVFRLLGKYMRKGLYSILTQGPIPTHIAFILDGNGRFAKKHKLPEGGGHKAGFLALLNVLTYCYELGVKYATIYAFSIDNFRRKPHEVQYVMNLMLEKIEGMIMEESIINAYDICVRFVGNLKLLDEPLKTAADKIMRATAKNSKFVLLLAVCYTSTDEIVHAVEESSKDKLKSDEICNDGNGDCVIKIEEMEPYSEIKLVELERNTYINPYPDVLIRTSGETRLSNYLLWQTTNCILYSPHALWPEIGLRHVVWAVINCQRHYSYLEKHKEYLK
Regarding B1, the binding result in test [1] is on record as “no binding”.

B2: Rubber elongation factor (REF) from Hevea brasiliensis, split-ubiquitin Y2H fusion (protein, UniProt P15252 1-138)
chain: MAEDEDNQQGQGEGLKYLGFVQDAATYAVTTFSNVYLFAKDKSGPLQPGVDIIEGPVKNVAVPLYNRFSYIPNGALKFVDSTVVASVTIIDRSLPPIVKDASIQVVSAIRAAPEAARSLASSLPGQTKILAKVFYGEN
Turning to B2, the binding result in test [2] and in test [3] was “binds” each time.

B3: Rubber elongation factor (REF) fused to a split mVenus fragment (BiFC) (protein, UniProt P15252 1-138)
chain: MAEDEDNQQGQGEGLKYLGFVQDAATYAVTTFSNVYLFAKDKSGPLQPGVDIIEGPVKNVAVPLYNRFSYIPNGALKFVDSTVVASVTIIDRSLPPIVKDASIQVVSAIRAAPEAARSLASSLPGQTKILAKVFYGEN
As to B3, the binding result in test [4] was “binds”.
